No constants are given. Whether binding was seen depends on the method and setting. Binding seen in cells or lysates may run through a third protein. Some entries that bind do so weakly or less than the wild type. For some assays here: Sequences can lack the tags named with a protein. Values belong to the molecule of their own block, whether it stands above or below them.
Legend:
[1] = biological target: c-Jun N-terminal kinase 2 (JNK2) (human (endogenous in NHEKs)) (UniProt P45984); experiment: co-IP; endogenous proteins; whole-cell extracts of NHEKs stimulated with 5 μg ml^-1 poly(I:C) and/or 30 nM REG3A; immunoprecipitation with anti-SHP-1 or anti-JNK2, protein A&G beads, immunoblot
[2] = biological target: Src homology region 2 domain-containing protein tyrosine phosphatase 1 (SHP-1) (human (endogenous in NHEKs)) (UniProt P29350); experiment: as above
[3] = biological target: T1, N-EXTL3 (1-548), Flag-tagged (UniProt O43909); experiment: co-IP; whole-cell extracts after transfection; Flag-tagged EXTL3 constructs and REG3A or C-REG3A; immunoprecipitation with anti-Flag or anti-REG3A overnight at 4 degree, protein A&G beads, immunoblot
T1 sequence: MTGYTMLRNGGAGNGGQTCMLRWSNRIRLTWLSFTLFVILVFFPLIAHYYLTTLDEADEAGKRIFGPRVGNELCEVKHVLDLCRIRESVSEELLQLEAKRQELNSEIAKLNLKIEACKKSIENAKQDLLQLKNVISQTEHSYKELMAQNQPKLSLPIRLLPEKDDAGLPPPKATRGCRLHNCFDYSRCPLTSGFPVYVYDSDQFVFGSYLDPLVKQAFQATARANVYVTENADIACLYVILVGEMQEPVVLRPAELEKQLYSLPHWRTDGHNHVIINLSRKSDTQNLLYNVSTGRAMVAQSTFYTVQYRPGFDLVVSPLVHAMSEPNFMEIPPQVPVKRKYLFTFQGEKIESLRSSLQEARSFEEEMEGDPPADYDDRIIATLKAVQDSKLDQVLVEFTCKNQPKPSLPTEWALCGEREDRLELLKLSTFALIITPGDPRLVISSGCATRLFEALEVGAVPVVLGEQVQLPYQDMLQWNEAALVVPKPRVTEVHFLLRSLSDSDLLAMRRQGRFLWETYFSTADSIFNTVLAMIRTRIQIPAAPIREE

Amino acid sequences for entries named in this document (tags omitted).
UniProt P29350: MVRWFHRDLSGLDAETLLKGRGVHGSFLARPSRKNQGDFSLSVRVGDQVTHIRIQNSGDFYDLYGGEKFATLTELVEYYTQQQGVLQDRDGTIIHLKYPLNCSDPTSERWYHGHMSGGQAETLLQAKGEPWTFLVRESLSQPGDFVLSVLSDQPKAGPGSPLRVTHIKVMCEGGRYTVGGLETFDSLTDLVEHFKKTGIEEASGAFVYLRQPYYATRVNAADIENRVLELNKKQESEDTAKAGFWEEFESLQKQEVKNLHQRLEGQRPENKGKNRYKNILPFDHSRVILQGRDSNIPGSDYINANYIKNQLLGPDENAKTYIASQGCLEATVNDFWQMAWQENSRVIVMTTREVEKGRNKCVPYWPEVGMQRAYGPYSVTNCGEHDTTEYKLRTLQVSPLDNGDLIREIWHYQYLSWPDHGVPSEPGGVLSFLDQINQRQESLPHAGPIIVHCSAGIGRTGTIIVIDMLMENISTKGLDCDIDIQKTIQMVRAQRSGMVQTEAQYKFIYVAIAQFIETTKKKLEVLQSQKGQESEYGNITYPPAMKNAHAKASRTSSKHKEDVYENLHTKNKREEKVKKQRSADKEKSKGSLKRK

[4] = biological target: T2, exostosin-like 3 (EXTL3), full-length, Flag-tagged (UniProt O43909); experiment: as above
T2 sequence: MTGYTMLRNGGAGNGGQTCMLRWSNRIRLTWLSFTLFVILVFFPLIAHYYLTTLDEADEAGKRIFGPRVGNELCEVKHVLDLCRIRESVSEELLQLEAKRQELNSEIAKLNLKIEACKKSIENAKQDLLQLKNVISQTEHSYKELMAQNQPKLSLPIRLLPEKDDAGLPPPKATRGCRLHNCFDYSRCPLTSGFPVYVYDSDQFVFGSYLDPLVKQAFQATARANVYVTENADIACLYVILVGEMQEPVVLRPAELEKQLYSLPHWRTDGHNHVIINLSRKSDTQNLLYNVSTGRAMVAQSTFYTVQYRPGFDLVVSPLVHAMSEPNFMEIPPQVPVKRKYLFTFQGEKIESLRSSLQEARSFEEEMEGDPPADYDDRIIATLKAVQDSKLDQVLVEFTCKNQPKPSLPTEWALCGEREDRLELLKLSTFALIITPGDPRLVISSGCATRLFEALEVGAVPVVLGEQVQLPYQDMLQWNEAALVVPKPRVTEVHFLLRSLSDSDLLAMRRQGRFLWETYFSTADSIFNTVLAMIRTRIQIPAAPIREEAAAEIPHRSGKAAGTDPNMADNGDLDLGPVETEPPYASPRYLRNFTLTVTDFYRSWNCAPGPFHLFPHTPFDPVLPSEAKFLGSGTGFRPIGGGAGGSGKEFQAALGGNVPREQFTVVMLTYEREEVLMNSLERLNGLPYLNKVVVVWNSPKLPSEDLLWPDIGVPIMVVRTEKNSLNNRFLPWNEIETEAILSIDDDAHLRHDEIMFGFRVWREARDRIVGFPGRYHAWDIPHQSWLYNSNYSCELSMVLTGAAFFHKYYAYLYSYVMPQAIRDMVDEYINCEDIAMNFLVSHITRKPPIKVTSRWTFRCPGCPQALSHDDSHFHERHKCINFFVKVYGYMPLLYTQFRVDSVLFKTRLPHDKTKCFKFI

Molecule: Src homology region 2 domain-containing protein tyrosine phosphatase 1 (SHP-1) (from UniProt P29350 1-595) (enzyme)
binding [1]: binds

B2: regenerating islet-derived protein 3A (REG3A), full-length (protein, UniProt Q06141 27-175)
chain: EEPQRELPSARIRCPKGSKAYGSHCYALFLSPKSWTDADLACQKRPSGNLVSVLSGAEGSFVSSLVKSIGNSYSYVWIGLHDPTQGTEPNGEGWEWSSSDVMNYFAWERNPSTISSPGHCASLSRSTAFLRWKDYNCNVRLPYVCKFTD
binding [3]: binds | binding [4]: binds

Now from value to molecule:

binding [2]: binds
Molecule: c-Jun N-terminal kinase 2 (JNK2) (from UniProt P45984 1-424) (enzyme)

binding [3]: binds
B1: CTLD domain of REG3A (C-REG3A) (domain or fragment, UniProt Q06141 40-175)
chain: CPKGSKAYGSHCYALFLSPKSWTDADLACQKRPSGNLVSVLSGAEGSFVSSLVKSIGNSYSYVWIGLHDPTQGTEPNGEGWEWSSSDVMNYFAWERNPSTISSPGHCASLSRSTAFLRWKDYNCNVRLPYVCKFTD
